# Assay results taken from patent US20040180394A1, “Assays for inositol phosphates” (priority 2001, published 2004).
# Test: Detection of 3H-inositol-1-phosphate versus 3H-inositol by YSi SPA beads
# Details: 1 mg YSi SPA beads per well, 20 mM formic acid final, 1 mM ammonium phosphate pH 8
row,Compound,efficiency of detection by YSi SPA beads relative to detection using Microscint-20
1,O=P(O)(O)OC1[C@H](O)[C@H](O)C(O)[C@H](O)[C@H]1O (some centres unmarked) [3H-inositol-1-phosphate],55%
2,3H-inositol,5%
